Positions count from the first letter of the chain named. No constants are given. Whether binding was seen depends on the method and setting. Some entries that bind do so weakly or less than the wild type. For part of these data: Where a sequence is shown, tags or fusion partners need not be part of it. Values belong to the binder of their own block, whether it stands above or below them.
Experiments:
[1] = target: PSCA human Gamma 1 fusion protein (human) [IgG part: P01857]; test: flow cytometry of yeast-displayed scFv clones after the fourth round of sorting with PSCA human Gamma 1 fusion protein
purified PSCA-Fc [2] = target: T1, purified PSCA-Fc (human, UniProt O43653 12-83, limits assumed); test: refers back to the affinity ranking of Example 4 (competition ELISA and flow cytometry)
T1 construct: not shown: Fc part
T1 sequence: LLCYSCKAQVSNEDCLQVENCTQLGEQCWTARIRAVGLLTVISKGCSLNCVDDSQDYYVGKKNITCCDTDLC

[3] = target: T2, PSCA expressed at the cell surface (EBV transformed B-cell lymphoma cell line stably transfected with PSCA) (human) (UniProt O43653); test: flow cytometry on a B-cell lymphoma line stably transfected with PSCA, detected with anti-human Fc PE
T2 sequence: T1 sequence

purified PSCA-Fc [4] = target: T1, purified PSCA-Fc; test: competition ELISA, wells coated with purified PSCA-Fc

binding [1]: binds
B1: A11 ScFv (2B3 ScFv variant) (scFv)
scFv: DIQLTQSPSTLSASMGDRVTITCSASSSVRFIHWYQQKPGKAPKRLIYDTSKLASGVPSRFSGSGSGTDFTLTISSLQPEDFATYYCQQWGSSPFTFGQGTKVEIKGSTSGGGSGGGSGGGGSSEVQLVEYGGGLVQPGGSLRLSCAASGFNIKDYYIHWVRQAPGKGLEWVAWIDPENGDTEFVPKFQGRATMSADTSKNTAYLQMNSLRAEDTAVYYCKTGGFWGQGTLVTVSSAAG

binding [1]: binds
B2: C5 ScFv (2B3 ScFv variant) (scFv)
scFv: B1 scFv with T5I, T10S, M15V, G91S, Y131S, M194I, A203V, E213K

binding [1]: binds
B3: A2 ScFv (2B3 ScFv variant) (scFv)
scFv: DIQLTQSPSSLSASVGDRVTITCSASSSVRFIHWYQQKPGKAPKRLIYDTSKLASGVPSRFSGSGSGTDFTLTISSLQPEDFATYYCQQWGSSPFTFGQGTKVEIKGSTSGGGSGGGSGGGGSEVQLVESGGGLVQPGGSLRLSCAASGFNIKDYYIHWVRQAPGKGLEWVAWIDPEYGDSEFVPKFQGRATMSADTSKNTAYLQMNSLRAEDTAVYYCKTGGFWGRGTLVTVSSAAG

binding (purified PSCA-Fc [2]): binds
binding [3]: binds
B4: A2 anti-PSCA minibody (other)
chain: DIQLTQSPSSLSASVGDRVTITCSASSSVRFIHWYQQKPGKAPKRLIYDTSKLASGVPSRFSGSGSGTDFTLTISSLQPEDFATYYCQQWGSSPFTFGQGTKVEIKGSTSGGGSGGGSGGGGSEVQLVESGGGLVQPGGSLRLSCAASGFNIKDYYIHWVRQAPGKGLEWVAWIDPEYGDSEFVPKFQGRATMSADTSKNTAYLQMNSLRAEDTAVYYCKTGGFWGRGTLVTVSSEPKSCDKTHTCPPCGGGSSGGGSGGQPREPQVYTLPPSRDELTKNQVSLTCLVKGFYPSDIAVEWESNGQPENNYKTTPPVLDSDGSFFLYSKLTVDKSRWQQGNVFSCSVMHEALHNHYTQKSLSLSPGK
notes: also called A2 minibody; variant A2

binding [3]: binds
B5: A11 anti-PSCA minibody (other)
chain: DIQLTQSPSTLSASMGDRVTITCSASSSVRFIHWYQQKPGKAPKRLIYDTSKLASGVPSRFSGSGSGTDFTLTISSLQPEDFATYYCQQWGSSPFTFGQGTKVEIKGSTSGGGSGGGSGGGGSSEVQLVEYGGGLVQPGGSLRLSCAASGFNIKDYYIHWVRQAPGKGLEWVAWIDPENGDTEFVPKFQGRATMSADTSKNTAYLQMNSLRAEDTAVYYCKTGGFWGQGTLVTVSSEPKSCDKTHTCPPCGGGSSGGGSGGQPREPQVYTLPPSRDELTKNQVSLTCLVKGFYPSDIAVEWESNGQPENNYKTTPPVLDSDGSFFLYSKLTVDKSRWQQGNVFSCSVMHEALHNHYTQKSLSLSPGK
notes: also called A11 minibody; variant A11

binding (purified PSCA-Fc [4]): binds
binding [3]: binds
B6: parental 2B3 minibody (protein)
chain: B5 chain with T10S, M15V, G91S, Y131S, M194I

binding [3]: binds
B7: C5 anti-PSCA minibody (other)
chain: B5 chain with T5I, T10S, M15V, G91S, Y131S, M194I, A203V, E213K
notes: also called C5 minibody; variant C5

From patent US20150239983A1 (University of California, published 2015)
